Measured values as given in patent US9155715B2, “Transdermal composition comprising tolterodine” (SK Chemicals Co., Ltd., priority 2009, dated 2015).
Some results were stated once for a whole list of compounds, not compound by compound.

Experiment: Screening of antioxidant (tolterodine decomposition in H2O2 solution)
Format: physicochemical
Conditions: tolterodine in ethanol/0.3% H2O2 with 10 mg of the named antioxidant, 25° C., 100 rpm, 2.5 days, listed as l-cysteine HCl
Procedure: [Analytical Method] • Test solution: tolterodine (−0.5 mg/mL) • Mobile phase: 45:55 mixture solution of ammonium dihydrogen phosphate and methanol, pH 7.0 • HPLC condition: detector 220 nm, column ODS3 C-18
Tolterodine free base (500 mg) was mixed with ethanol (50 mL) in a 100 mL flask and 0.3% H2O2 solution was added thereto to a final volume of 100 mL.
Antioxidant, weighed 10 mg each, was added into two glass bottles. One bottle contained tolterodine and the antioxidant, while the other bottle contained only the antioxidant, which was prepared to exclude the peaks resulting from the decomposition of the antioxidant by H2O2.
Tolterodine solution (2 mL) or a 1:1 mixture solution of 0.3% H2O2 aqueous solution and ethanol (2 mL) were added to the two glass bottles containing the antioxidant. The bottles were agitated at 100 rpm and 25° C. for 2.5 days.

Structure (SMILES): Cl.N[C@@H](CS)C(=O)O [l-Cysteine HCl]
- Total decomposed substances (peak area ratio of decomposed substances of tolterodine): less than 2%
